# Data from PubChem BioAssay AID540256 (National Center for Advancing Translational Sciences (NCATS), 2011).
# Among all 300,000 compounds or so, about 3,700 (1.2%) were called active. This list was built around the results that the source calls inconclusive (neither active nor inactive); the mix of calls is not that of the screen. Calls follow the shape of the full dose curve; tested in HEK293 cells. Where the call is inconclusive, the potency comes from a doubtful curve fit.
# Test: qHTS for Inhibitors of binding or entry into cells for Lassa Virus; also: nearly all actives have a fitted effect of over 50% in size
# Conditions: Lassa virus pseudotype entry inhibition, cell reporter; series mostly up to 37.9 µM
# Potency is read from the fitted curve at half-maximal effect.
row,Structure (SMILES),Potency
1,COc1ccccc1CCNC(=O)C1CCN(c2nnc(C)c3c(C)n(-c4ccc(C)cc4)nc23)CC1,"inconclusive: 6.31 µM [inhibitor, partial curve, poor fit]"
2,C/C(=N\NC(=O)CN(c1ccccc1)S(C)(=O)=O)c1ccccc1O,"inconclusive: 10 µM [inhibitor, partial curve, poor fit]"
3,COc1ccc(C(CC(=O)Nc2ccc(Br)cn2)N2Cc3ccccc3C2=O)cc1 (stereo unspecified),inactive
4,O=C(CSc1nnc(CN2CCCCCC2=O)n1-c1ccccn1)NCC(F)(F)F,"inconclusive: 23.1 µM [activator, single point]"
5,c1csc(C2C3=C(Nc4ncnn42)c2ccccc2OC3)c1 (stereo unspecified),inactive
6,O=C(c1cc(S(=O)(=O)N2CCOCC2)c(Cl)cc1Cl)N1CCN(S(=O)(=O)c2cccc(F)c2)CC1,inactive
7,COC(=O)N/N=C/c1cn(Cc2ccccc2F)c2ccccc12,inactive
8,CCSc1nc(-c2ccccc2)c2cc(Cl)ccc2n1,inactive
9,Cc1ccc(CS(=O)(=O)c2ncc(Cl)c(C(=O)Nc3ccc(OC(F)F)cc3)n2)cc1,"inconclusive: 35.5 µM [inhibitor, single point]"
10,CC(C)C(NC(=O)c1ccccc1F)C(=O)OCC(=O)c1ccc(F)cc1 (stereo unspecified),inactive
11,O=C(c1ccc(S(=O)(=O)c2ccccc2)cc1)N1CCCCCC1,"inconclusive: 35.5 µM [inhibitor, single point]"
12,Cn1c(=NC(=O)CS(=O)(=O)c2ccccc2)sc2ccccc21,inactive
13,CCc1ccc(-c2nc(SCC(=O)N(CC)C3CCS(=O)(=O)C3)n[nH]2)cc1 (stereo unspecified),"inconclusive: 0.562 µM [inhibitor, full curve, poor fit]"
14,Cc1ccccc1NC(=S)NCc1ccco1,inactive
15,N#CCCn1cc(/C=N/NC(N)=S)c(-c2ccc(Br)cc2)n1,inactive
16,O=C(/C(=C/c1cccc(Cl)c1)c1nc2ccccc2[nH]1)c1ccccc1,active: 10 µM
17,Cc1ccc(C(C(=O)NCc2ccccc2)N(Cc2cccs2)C(=O)c2ccc3c(c2)OCCO3)cc1 (stereo unspecified),active: 6.51 µM
18,NN/C(=C\[N+](=O)[O-])Nc1ccc(Cl)cc1,inactive
19,CC(=O)c1ccc(N2CCN(C(=O)CCCn3c(=O)[nH]c4ccsc4c3=O)CC2)cc1,"inconclusive: 2.51 µM [activator, single point]"
20,Cn1c(C(=O)NCc2cccc(Cl)c2)cc2oc3ccccc3c21,"inconclusive: 1.78 µM [inhibitor, full curve, poor fit]"
21,Cn1c(N)c(S(=O)(=O)NCc2ccccc2Cl)c(=O)n(C)c1=O,inactive
22,Cc1cnc(NC(=O)Cc2ccc(C)c(C)c2)s1,"inconclusive: 11.2 µM [inhibitor, partial curve, poor fit]"
23,COc1ccc(Nc2c(-c3ccsc3)nc3nc(C)cc(C)n23)cc1,inactive

row,Structure (SMILES),Potency
1,Cc1cc(C(=O)Nc2nc3c(s2)CCCC3)no1,"inconclusive: 13 µM [inhibitor, partial curve, poor fit]"
2,CCN(CCCNC(=O)c1cc2c(-c3cccc(OC)c3)nn(C)c2s1)Cc1ccccc1,"inconclusive: 7.94 µM [inhibitor, partial curve, poor fit]"
3,O=c1ccc(/C=C/c2ccccc2)nn1Cc1ccccc1,"inconclusive: 17.8 µM [inhibitor, single point]"
4,O=C(Nc1ccnn1C1CCN(Cc2cccnc2)CC1)c1ccccc1Cl,"inconclusive: 0.631 µM [activator, full curve]"
5,O=C(c1cccc(C(=O)N2CCN(c3ccccc3)CC2)c1)N1CCN(c2ccccc2)CC1,"inconclusive: 5.8 µM [inhibitor, partial curve, poor fit]"
6,COc1ccccc1OCC(=O)Nc1ccc(S(=O)(=O)N2CCCC2)cc1,inactive
7,Clc1ccccc1C1CC(c2ccccc2)=Nc2ccccc2N1 (stereo unspecified),inactive
8,COC(=O)c1ccc(C2C(C(=O)OCC(C)C)=C(C)N=C3SCCC(=O)N32)cc1 (stereo unspecified),"inconclusive: 20.6 µM [inhibitor, single point]"
9,Cc1cc(C)c2sc(N(CCCN(C)C)C(=O)c3ccc(S(=O)(=O)N(C)Cc4ccccc4)cc3)nc2c1,"inconclusive: 35.5 µM [inhibitor, partial curve, poor fit]"
10,C[n+]1c(-c2ccccc2)cc(-c2ccc(Cl)cc2)cc1-c1ccccc1,"inconclusive: 22.4 µM [inhibitor, single point]"
11,CCC(=O)NC(=S)Nc1cccc(C(C)=O)c1,inactive
12,Cc1ccc(NC(=O)CN2C(=O)CC(c3ccc(C)c(C)c3)=Nc3ccccc32)cc1,inactive
13,Cc1ccc(N(C(C)C(=O)Nc2cc(Cl)ccc2Oc2ccccc2)S(C)(=O)=O)cc1 (stereo unspecified),"inconclusive: 29.1 µM [inhibitor, single point]"
14,Cc1ccc(-n2c(N)cc(=O)nc2SCC(=O)NC2CCCCC2)cc1C,"inconclusive: 22.4 µM [activator, partial curve, poor fit]"
15,Cn1cccc1C(=O)OCC(=O)c1cc2ccccc2o1,"inconclusive: 2.59 µM [activator, full curve]"
16,Cc1cc(C)c(NC(=O)C2CCC(=O)N2)c(C)c1 (stereo unspecified),"inconclusive: 35.5 µM [activator, single point]"
17,CC(C)CC(=O)OCc1cc(=O)n2nc(C3CCCCC3)sc2n1,inactive
18,COc1ccc(Cl)cc1NC(=O)C(C)N(C)Cc1ccc(C(F)(F)F)cc1 (stereo unspecified),inactive
19,COc1ccc(-c2nc(C#N)c(NCCc3ccccc3)o2)cc1OC,"inconclusive: 35.5 µM [inhibitor, single point]"
20,Cn1cccc1-c1cc(C(=O)N/N=C/C=C/c2ccccc2)[nH]n1,"inconclusive: 6.51 µM [inhibitor, partial curve, poor fit]"
21,CCOc1ccc(CCNC(=O)COC(=O)CNS(=O)(=O)c2ccc(NC(C)=O)cc2)cc1OCC,inactive
22,COc1ccc2oc(=O)c(-c3nnc(N)s3)cc2c1,inactive
23,CC(OC(=O)c1ccc(NC(=O)CC#N)cc1)C(=O)Nc1nc(-c2ccccc2)cs1 (stereo unspecified),"inconclusive: 22.4 µM [inhibitor, partial curve, poor fit]"

# Arranged by molar mass (descending): three of the compounds above.
row,Structure (SMILES),Potency
20,Cn1cccc1-c1cc(C(=O)N/N=C/C=C/c2ccccc2)[nH]n1,"inconclusive: 6.51 µM [inhibitor, partial curve, poor fit]"
3,O=c1ccc(/C=C/c2ccccc2)nn1Cc1ccccc1,"inconclusive: 17.8 µM [inhibitor, single point]"
15,Cn1cccc1C(=O)OCC(=O)c1cc2ccccc2o1,"inconclusive: 2.59 µM [activator, full curve]"
